Experimental data published in EP2757103B1, “PYRROLIDINE-3-YLACETIC ACID DERIVATIVE” (Eisai R&D Management Co., Ltd., priority 2011, dated 2013).
At least one compound was matched to its structure with a doubt left.

Molecular target: T1, CX3CR1 (Homo sapiens, UniProt P49238)
T1 construct: expressed in transfected cells; host or cells: B300 cells
T1 sequence (P49238 1-355): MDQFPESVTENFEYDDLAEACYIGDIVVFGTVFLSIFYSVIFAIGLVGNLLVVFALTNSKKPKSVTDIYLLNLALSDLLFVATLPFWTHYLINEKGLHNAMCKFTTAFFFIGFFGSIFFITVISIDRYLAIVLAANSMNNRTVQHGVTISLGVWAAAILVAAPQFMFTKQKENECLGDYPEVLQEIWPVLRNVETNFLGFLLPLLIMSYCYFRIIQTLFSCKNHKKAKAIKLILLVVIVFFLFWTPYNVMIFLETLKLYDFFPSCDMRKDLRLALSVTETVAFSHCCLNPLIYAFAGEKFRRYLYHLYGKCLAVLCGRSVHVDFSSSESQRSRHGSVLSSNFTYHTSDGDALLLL
Experiment: Inhibition of cell migration in fractalkine-induced chemotaxis assay
Type: cell-based
Conditions: fractalkine-induced (0.3 nM) migration of CX3CR1-expressing B300 cells; preincubated with test compound for 30 minutes; Transwell, 3.5 hours at 37°C
Experimental: The inhibitory effects of the example compounds on fractalkine-induced cell migration were examined using CX3CR1-transfected B300 cells
After equilibrating the Transwell plate (24-well clusters, pore size: 5 µm, manufactured by Corning Incorporated), a fractalkine solution (0.3 nM, manufactured by R&D Systems, Inc.) was added to the lower wells. CX3CR1-expressing B300 cells which were preincubated with the test compound (0.001, 0.003, 0.01 or 0.03 µM) for 30 minutes were placed in the upper layer wells, followed by incubation under the condition of 5% CO2 for 3.5 hours at 37°C. The number of cells migrated to the lower wells was evaluated using CellTiter (manufactured by Promega Corporation).
The inhibitory rate of the test compound on fractalkine-induced cell migration was calculated by the following formula, where [A] is the number of migrated cells in the presence of both fractalkine and the test compound, [B] is the number of migrated cells in the presence of fractalkine and in the absence of the test compound, and [C] is the number of migrated cells in the absence of both fractalkine and the test compound; the 50% inhibitory concentration (IC50) was calculated based on the inhibitory rate. Inhibitory rate (%) = [1-{(A-C)/(B-C)}] × 100

## C[C@H]1CN(Cc2c(Cl)cccc2Cl)C[C@@]1(CC(=O)O)C(=O)NC1CCN(CC2=CCCCC2)CC1 [Example 11, 2-[(3S,4R)-3-{[(1-Cyclohex-1-en-1-ylmethyl)piperidin-4-yl]carbamoyl}-1-[(2,6-dichlorophenyl)methyl]-4-methylpyrrolidin-3-yl]acetic acid]
  IC50: 6 nM
